Test results as given in the supplement of paper PMC10849652.
Some of the results follow.

Amino acid sequences for entries named in this document (tags omitted). A change or cut given only in a name is not applied to a line headed by its entry.
UniProt P35790, whole entry, looked up: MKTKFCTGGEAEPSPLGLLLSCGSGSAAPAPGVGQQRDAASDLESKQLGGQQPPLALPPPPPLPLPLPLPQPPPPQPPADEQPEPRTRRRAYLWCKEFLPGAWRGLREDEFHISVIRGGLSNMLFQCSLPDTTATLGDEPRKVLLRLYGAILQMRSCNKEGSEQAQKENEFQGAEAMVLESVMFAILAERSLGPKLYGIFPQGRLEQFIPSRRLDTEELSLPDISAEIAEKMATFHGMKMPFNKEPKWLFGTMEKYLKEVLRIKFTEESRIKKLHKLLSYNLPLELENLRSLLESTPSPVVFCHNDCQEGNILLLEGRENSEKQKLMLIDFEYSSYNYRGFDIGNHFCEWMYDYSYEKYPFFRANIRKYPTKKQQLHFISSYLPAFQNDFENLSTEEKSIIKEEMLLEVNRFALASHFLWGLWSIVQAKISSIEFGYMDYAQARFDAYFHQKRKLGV
UniProt O15111: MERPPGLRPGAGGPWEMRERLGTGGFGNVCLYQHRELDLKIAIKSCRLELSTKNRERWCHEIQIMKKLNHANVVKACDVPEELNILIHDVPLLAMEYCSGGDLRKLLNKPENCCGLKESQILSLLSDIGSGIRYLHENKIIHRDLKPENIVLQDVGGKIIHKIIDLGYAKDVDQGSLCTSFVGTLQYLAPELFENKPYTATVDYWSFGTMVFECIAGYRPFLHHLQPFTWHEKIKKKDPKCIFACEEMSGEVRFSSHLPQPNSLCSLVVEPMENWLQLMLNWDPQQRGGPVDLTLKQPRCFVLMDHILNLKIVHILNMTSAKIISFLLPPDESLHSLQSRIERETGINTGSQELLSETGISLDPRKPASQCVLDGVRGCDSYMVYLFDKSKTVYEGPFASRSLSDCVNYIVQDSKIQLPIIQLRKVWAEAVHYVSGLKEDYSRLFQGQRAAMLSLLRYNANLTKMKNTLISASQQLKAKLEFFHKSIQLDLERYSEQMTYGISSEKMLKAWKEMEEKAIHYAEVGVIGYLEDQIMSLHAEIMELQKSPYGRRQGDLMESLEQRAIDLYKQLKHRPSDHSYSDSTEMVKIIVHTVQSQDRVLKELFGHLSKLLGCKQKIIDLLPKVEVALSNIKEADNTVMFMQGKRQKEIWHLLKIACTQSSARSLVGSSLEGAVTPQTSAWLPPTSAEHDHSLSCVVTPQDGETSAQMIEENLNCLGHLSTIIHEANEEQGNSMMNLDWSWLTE
UniProt Q9BRQ6: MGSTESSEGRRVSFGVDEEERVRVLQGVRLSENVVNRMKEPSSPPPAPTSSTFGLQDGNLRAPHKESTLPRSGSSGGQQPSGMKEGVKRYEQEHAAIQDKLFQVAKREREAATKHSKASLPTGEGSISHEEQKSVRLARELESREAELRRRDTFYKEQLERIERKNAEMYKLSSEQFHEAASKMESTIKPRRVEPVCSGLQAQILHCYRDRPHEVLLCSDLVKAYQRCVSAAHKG
UniProt P62633: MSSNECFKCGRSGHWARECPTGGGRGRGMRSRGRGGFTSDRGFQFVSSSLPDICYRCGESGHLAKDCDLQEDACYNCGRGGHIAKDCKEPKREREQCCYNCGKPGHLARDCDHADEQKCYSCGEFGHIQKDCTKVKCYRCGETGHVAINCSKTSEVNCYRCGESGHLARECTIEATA
UniProt O15247: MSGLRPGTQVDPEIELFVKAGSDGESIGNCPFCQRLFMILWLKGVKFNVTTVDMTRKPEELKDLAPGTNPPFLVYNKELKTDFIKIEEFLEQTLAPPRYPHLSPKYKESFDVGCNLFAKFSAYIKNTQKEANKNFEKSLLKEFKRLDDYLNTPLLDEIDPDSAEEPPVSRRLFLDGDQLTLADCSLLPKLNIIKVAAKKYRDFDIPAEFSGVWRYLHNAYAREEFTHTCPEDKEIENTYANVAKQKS
UniProt Q12873: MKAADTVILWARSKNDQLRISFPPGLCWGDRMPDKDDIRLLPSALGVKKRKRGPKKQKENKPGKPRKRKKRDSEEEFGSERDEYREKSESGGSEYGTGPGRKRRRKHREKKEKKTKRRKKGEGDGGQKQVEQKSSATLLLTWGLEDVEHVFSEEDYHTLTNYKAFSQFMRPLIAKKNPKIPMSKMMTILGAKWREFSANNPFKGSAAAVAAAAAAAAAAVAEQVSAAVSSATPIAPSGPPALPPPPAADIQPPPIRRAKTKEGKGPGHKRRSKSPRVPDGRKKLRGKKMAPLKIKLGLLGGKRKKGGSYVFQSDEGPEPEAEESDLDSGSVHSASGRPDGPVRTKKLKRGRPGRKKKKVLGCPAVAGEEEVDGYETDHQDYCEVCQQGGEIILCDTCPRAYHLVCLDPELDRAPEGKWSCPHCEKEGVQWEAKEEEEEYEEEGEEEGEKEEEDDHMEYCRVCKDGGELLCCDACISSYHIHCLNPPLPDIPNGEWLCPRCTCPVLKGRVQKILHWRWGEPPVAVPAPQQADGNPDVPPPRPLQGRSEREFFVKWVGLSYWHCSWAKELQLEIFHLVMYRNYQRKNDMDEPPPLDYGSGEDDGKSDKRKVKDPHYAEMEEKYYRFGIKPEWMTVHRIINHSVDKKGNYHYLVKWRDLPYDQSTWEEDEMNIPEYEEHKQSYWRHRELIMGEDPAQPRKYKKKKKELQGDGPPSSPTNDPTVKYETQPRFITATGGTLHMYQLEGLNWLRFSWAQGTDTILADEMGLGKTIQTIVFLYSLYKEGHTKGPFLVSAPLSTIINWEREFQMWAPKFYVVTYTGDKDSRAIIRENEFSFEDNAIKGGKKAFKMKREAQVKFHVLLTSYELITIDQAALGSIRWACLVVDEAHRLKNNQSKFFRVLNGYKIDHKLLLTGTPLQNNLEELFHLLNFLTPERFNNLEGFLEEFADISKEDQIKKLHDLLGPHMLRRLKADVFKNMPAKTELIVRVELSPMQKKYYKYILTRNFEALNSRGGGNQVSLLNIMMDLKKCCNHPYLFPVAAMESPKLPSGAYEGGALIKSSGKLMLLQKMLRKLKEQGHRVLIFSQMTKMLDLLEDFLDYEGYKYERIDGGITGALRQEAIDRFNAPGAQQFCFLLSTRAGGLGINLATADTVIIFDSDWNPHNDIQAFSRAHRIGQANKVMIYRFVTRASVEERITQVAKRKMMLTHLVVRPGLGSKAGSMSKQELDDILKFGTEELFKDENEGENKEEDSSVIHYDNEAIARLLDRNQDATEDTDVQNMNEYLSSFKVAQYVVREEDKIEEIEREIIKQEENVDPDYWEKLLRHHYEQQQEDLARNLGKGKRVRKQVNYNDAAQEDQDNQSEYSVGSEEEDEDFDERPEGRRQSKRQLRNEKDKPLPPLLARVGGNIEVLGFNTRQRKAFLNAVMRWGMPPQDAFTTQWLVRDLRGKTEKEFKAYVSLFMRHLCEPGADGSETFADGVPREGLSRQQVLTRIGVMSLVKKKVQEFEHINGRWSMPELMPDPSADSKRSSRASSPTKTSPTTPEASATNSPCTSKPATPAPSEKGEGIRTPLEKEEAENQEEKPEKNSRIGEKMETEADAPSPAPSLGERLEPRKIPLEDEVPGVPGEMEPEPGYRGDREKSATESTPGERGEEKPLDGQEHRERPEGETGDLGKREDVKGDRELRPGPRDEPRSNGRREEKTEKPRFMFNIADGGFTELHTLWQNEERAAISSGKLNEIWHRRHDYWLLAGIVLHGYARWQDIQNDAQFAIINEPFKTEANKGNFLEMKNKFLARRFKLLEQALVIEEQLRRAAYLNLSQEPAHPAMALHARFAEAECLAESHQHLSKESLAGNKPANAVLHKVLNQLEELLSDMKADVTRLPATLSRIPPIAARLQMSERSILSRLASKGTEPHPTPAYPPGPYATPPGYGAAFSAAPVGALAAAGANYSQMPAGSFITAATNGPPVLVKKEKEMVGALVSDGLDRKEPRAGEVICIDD
UniProt Q9UKJ5: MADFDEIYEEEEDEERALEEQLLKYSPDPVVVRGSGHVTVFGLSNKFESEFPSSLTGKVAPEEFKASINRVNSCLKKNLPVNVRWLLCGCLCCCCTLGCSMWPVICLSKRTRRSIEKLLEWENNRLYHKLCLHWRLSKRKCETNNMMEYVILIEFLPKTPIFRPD
UniProt Q9Y3D0: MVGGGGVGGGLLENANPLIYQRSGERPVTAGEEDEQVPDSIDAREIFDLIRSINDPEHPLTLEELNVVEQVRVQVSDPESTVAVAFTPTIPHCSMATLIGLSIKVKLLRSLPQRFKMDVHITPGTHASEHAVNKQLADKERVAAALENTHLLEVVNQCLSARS
UniProt Q86X52: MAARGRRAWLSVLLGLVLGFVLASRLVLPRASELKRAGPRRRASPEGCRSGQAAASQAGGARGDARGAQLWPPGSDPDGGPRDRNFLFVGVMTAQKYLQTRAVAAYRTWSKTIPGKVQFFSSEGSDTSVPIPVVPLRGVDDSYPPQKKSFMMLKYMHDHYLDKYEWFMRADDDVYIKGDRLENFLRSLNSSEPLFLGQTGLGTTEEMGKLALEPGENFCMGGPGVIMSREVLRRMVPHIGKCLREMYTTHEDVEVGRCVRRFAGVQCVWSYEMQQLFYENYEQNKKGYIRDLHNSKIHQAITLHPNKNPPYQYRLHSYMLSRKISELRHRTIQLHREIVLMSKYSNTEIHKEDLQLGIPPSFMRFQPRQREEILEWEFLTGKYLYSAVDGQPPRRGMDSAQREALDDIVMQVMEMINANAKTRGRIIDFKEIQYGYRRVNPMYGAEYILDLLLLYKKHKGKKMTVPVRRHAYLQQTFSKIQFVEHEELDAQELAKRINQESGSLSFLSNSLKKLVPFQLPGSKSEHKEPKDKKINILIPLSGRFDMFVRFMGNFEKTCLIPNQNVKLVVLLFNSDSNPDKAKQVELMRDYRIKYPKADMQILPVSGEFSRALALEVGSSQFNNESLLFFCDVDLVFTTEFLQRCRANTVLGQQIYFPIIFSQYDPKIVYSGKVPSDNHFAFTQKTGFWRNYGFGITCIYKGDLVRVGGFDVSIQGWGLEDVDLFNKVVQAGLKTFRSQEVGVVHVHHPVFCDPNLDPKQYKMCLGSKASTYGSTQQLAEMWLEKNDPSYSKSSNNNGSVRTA
UniProt Q7Z460: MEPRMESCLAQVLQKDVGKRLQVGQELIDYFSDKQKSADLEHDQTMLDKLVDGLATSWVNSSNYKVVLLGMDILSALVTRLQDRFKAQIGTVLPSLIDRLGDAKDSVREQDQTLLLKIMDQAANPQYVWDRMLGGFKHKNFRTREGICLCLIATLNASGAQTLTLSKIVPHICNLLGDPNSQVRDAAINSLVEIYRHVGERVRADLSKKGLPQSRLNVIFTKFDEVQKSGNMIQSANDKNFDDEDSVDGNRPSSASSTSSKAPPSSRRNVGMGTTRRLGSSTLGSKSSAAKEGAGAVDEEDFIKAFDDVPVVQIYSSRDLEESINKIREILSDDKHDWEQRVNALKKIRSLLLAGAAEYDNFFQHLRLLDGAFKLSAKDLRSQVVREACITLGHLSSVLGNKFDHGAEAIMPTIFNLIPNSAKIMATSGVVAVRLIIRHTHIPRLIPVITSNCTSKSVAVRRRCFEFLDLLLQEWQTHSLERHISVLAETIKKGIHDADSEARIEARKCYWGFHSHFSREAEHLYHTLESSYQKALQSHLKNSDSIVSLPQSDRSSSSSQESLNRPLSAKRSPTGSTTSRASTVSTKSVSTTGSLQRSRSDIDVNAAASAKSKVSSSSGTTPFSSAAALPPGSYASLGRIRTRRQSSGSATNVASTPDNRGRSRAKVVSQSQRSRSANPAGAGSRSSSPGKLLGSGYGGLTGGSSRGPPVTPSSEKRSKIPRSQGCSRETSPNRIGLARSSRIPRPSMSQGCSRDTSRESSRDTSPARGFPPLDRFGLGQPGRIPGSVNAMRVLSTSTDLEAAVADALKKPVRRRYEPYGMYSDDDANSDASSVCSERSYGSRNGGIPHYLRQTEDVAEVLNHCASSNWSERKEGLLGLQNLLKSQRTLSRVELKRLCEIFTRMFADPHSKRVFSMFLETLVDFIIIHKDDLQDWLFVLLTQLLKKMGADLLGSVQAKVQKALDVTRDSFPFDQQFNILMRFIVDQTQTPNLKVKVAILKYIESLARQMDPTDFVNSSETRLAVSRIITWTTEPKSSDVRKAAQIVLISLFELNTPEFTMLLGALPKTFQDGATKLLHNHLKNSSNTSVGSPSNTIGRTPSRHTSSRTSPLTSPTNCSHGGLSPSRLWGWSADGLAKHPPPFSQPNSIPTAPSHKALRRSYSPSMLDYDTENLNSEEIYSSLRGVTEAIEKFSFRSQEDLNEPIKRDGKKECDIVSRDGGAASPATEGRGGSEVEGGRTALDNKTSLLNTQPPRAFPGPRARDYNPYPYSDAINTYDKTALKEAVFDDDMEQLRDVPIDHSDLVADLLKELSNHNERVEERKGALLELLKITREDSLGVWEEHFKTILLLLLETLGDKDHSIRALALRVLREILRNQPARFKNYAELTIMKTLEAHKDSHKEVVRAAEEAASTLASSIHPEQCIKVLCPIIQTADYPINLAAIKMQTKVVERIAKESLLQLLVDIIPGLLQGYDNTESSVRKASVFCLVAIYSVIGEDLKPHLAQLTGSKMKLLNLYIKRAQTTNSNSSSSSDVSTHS

Tests used:
Test in all cases: log2 fold change, soluble protein after heating vs DMSO (PISA); higher = thermal stabilisation; K562 lysate, 10 uM; active = over 0.2 and 3.5 SD of the protein, either way, in both replicates (recomputed)
lapatinib = compound: CS(=O)(=O)CCNCc1ccc(-c2ccc3ncnc(Nc4ccc(OCc5cccc(F)c5)c(Cl)c4)c3c2)o1 [lapatinib]
In short: (§1)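 Log-two fold change in thermal stability relative to solvent controls is reported from duplicates. For each sample, crude K562 extract from dounce-homogenised pellets in PBS pH 7.4 with 1 mM MgCl2, at 1 mg/mL protein, was treated with 10 μM compound for 30 min. Aliquots heated for 3 min across 48°C-58°C were pooled, brought to 0.5% NP-40 at 4°C and cleared at 21,000xg for 90 min. The supernatant was quantified by TMTpro 16plex LC-MS/MS with channel sums equalised.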

pictilisib = compound: CS(=O)(=O)N1CCN(Cc2cc3nc(-c4cccc5[nH]ncc45)nc(N4CCOCC4)c3s2)CC1 [pictilisib]
In short: as §1

crizotinib = compound: C[C@@H](Oc1cc(-c2cnn(C3CCNCC3)c2)cnc1N)c1c(Cl)ccc(F)c1Cl [crizotinib]
In short: as §1

[1] = compound: C[C@H](C1=CC=C(C=C1)C(=O)NC2=C3C=CNC3=NC=C2)N
In short: as §1

duvelisib = compound: C[C@H](Nc1ncnc2nc[nH]c12)c1cc2cccc(Cl)c2c(=O)n1-c1ccccc1 [duvelisib]
In short: as §1

gandotinib = compound: Cc1cc(Nc2cc(CN3CCOCC3)c3nc(C)c(Cc4ccc(Cl)cc4F)n3n2)n[nH]1 [gandotinib]
In short: as §1

tozasertib = compound: Cc1cc(Nc2cc(N3CCN(C)CC3)nc(Sc3ccc(NC(=O)C4CC4)cc3)n2)n[nH]1 [tozasertib]
In short: as §1

doramapimod = compound: Cc1ccc(-n2nc(C(C)(C)C)cc2NC(=O)Nc2ccc(OCCN3CCOCC3)c3ccccc23)cc1 [doramapimod]
In short: as §1

bafetinib = compound: Cc1ccc(NC(=O)c2ccc(CN3CC[C@H](N(C)C)C3)c(C(F)(F)F)c2)cc1Nc1nccc(-c2cncnc2)n1 [bafetinib]
In short: as §1

[2] = compound: Cc1cccc(CC(=O)N2CCc3c2ccc(-c2cn(C)c4ncnc(N)c24)c3F)n1
In short: as §1

| Target | log2 fold change (lapatinib) | log2 fold change (pictilisib) | log2 fold change (crizotinib) | log2 fold change [1] | log2 fold change (duvelisib) | log2 fold change (gandotinib) | log2 fold change (tozasertib) | log2 fold change (doramapimod) | log2 fold change (bafetinib) | log2 fold change [2] |
| --- | --- | --- | --- | --- | --- | --- | --- | --- | --- | --- |
| CHKA (UniProt P35790) | inactive: -0.003 | inactive: -0.04 | inactive: -0.002 | inactive: 0.032 | inactive: -0.106 | inactive: -0.14 | inactive: -0.044 | inactive: 0.001 | inactive: 0.221 | inactive: -0.024 |
| CHUK (UniProt O15111) | inactive: 0.001 | inactive: -0.031 | inactive: -0.067 | inactive: 0.112 | inactive: 0.036 | inactive: -0.067 | inactive: 0.024 | inactive: 0.008 | inactive: -0.001 | inactive: -0.048 |
| CHCHD2 (UniProt Q9Y6H1) | inactive: 0.035 | inactive: 0 | inactive: 0.119 | inactive: 0.044 | inactive: -0.008 | inactive: 0.021 | inactive: 0.102 | inactive: -0.021 | inactive: 0.288 | inactive: -0.138 |
| CHCHD6 (UniProt Q9BRQ6) | inactive: -0.168 | inactive: -0.017 | inactive: -0.01 | inactive: -0.093 | inactive: 0.015 | inactive: 0.062 | inactive: -0.055 | inactive: 0.003 | inactive: 0.074 | inactive: 0.064 |
| CNBP (UniProt P62633) | inactive: 0.048 | inactive: -0.029 | – | – | – | – | – | – | inactive: 0.005 | – |
| CHTF8 (UniProt P0CG13) | inactive: 0.073 | inactive: 0.069 | inactive: -0.054 | inactive: 0.059 | inactive: -0.065 | inactive: 0.007 | inactive: -0.107 | inactive: -0.032 | inactive: 0.022 | inactive: -0.001 |
| CHM (UniProt P24386) | inactive: -0.034 | inactive: -0.005 | inactive: 0.022 | inactive: 0.004 | inactive: 0.053 | inactive: 0.002 | inactive: -0.076 | inactive: -0.012 | inactive: 0.013 | inactive: 0.095 |
| CLP1 (UniProt Q92989) | inactive: -0.003 | – | inactive: -0.041 | inactive: -0.12 | inactive: -0.056 | inactive: 0.008 | inactive: 0.004 | inactive: 0.032 | inactive: 0.01 | inactive: 0.047 |
| CLIC2 (UniProt O15247) | inactive: -0.057 | – | inactive: -0.002 | inactive: -0.037 | inactive: -0.039 | inactive: -0.015 | inactive: -0.016 | inactive: -0.022 | inactive: -0.009 | inactive: 0.005 |
| CKAP2 (UniProt Q8WWK9) | inactive: -0.004 | inactive: -0.02 | inactive: -0.027 | inactive: 0.064 | inactive: 0.016 | inactive: 0.016 | inactive: 0.034 | inactive: -0.001 | inactive: 0.019 | inactive: -0.009 |
| CHP1 (UniProt Q99653) | inactive: -0.008 | inactive: -0.058 | inactive: -0.021 | inactive: -0.159 | inactive: 0.025 | inactive: 0.105 | inactive: 0 | inactive: -0.014 | inactive: -0.008 | inactive: 0.056 |
| CHD3 isoform 3 (UniProt Q12873) | inactive: -0.022 | inactive: -0.02 | inactive: 0.009 | inactive: 0.014 | inactive: -0.022 | inactive: -0.013 | inactive: -0.002 | inactive: 0.028 | inactive: -0.047 | inactive: 0.033 |
| CHIC2 (UniProt Q9UKJ5) | inactive: -0.395 | inactive: -0.084 | – | inactive: -0.041 | inactive: 0.056 | inactive: -0.024 | inactive: -0.028 | – | inactive: -0.132 | inactive: 0.05 |
| CIAO2B (UniProt Q9Y3D0) | inactive: 0.014 | inactive: -0.136 | inactive: -0.075 | – | inactive: 0.004 | – | inactive: 0.007 | inactive: -0.178 | inactive: -0.132 | – |
| CLCN7 (UniProt P51798) | inactive: -0.02 | – | inactive: -0.078 | inactive: -0.065 | inactive: 0.009 | inactive: -0.014 | inactive: -0.01 | inactive: 0.057 | inactive: -0.063 | inactive: 0.092 |
| CLIP2 (UniProt Q9UDT6) | inactive: -0.033 | – | inactive: -0.004 | inactive: 0 | inactive: 0.013 | inactive: 0.007 | inactive: 0.161 | inactive: 0.092 | inactive: 0.012 | inactive: 0.061 |
| CHSY1 (UniProt Q86X52) | inactive: 0.173 | inactive: -0.015 | – | inactive: -0.069 | inactive: 0.045 | inactive: 0.164 | – | – | inactive: -0.209 | inactive: 0.187 |
| CHD7 (UniProt Q9P2D1) | inactive: -0.06 | inactive: 0.023 | inactive: -0.021 | inactive: 0.069 | inactive: 0.056 | inactive: -0.113 | inactive: 0.073 | inactive: -0.029 | inactive: -0.032 | inactive: -0.036 |
| CNBP isoform 4 (UniProt P62633) | inactive: 0.058 | inactive: 0.02 | inactive: 0.002 | inactive: -0.022 | inactive: -0.017 | inactive: 0.022 | inactive: 0.033 | inactive: 0.205 | inactive: 0.073 | inactive: -0.032 |
| CLASP1 (UniProt Q7Z460) | inactive: 0 | – | inactive: -0.051 | inactive: -0.09 | inactive: -0.003 | inactive: 0.188 | inactive: 0.004 | inactive: 0.03 | inactive: -0.042 | inactive: 0.185 |
| CLASP2 isoform 3 (UniProt O75122) | inactive: -0.008 | – | inactive: -0.018 | inactive: -0.172 | inactive: -0.015 | inactive: 0.077 | inactive: 0.015 | inactive: 0.041 | inactive: -0.021 | active: 0.247 |
| CLIC1 (UniProt O00299) | inactive: 0.004 | – | inactive: 0.007 | inactive: 0.01 | inactive: -0.011 | inactive: -0.01 | inactive: -0.011 | inactive: 0.002 | inactive: 0.028 | inactive: 0.003 |
| CHEK1 (UniProt O14757) | inactive: -0.008 | inactive: -0.003 | inactive: -0.021 | inactive: 0.174 | inactive: -0.009 | inactive: -0.014 | inactive: 0.017 | inactive: 0.04 | inactive: -0.025 | inactive: 0.015 |
| CHCHD1 (UniProt Q96BP2) | inactive: 0.025 | inactive: 0.001 | inactive: -0.069 | active: 1.33 | inactive: 0.052 | inactive: -0.314 | inactive: -0.016 | inactive: 0.039 | inactive: 0.003 | active: -0.35 |
| CHD2 (UniProt O14647) | inactive: 0.091 | inactive: 0.063 | inactive: -0.021 | inactive: -0.15 | inactive: 0.036 | inactive: 0.179 | inactive: 0.098 | inactive: 0.136 | inactive: 0.034 | inactive: 0.249 |

For convenience, part of the list above:

| Target | log2 fold change (lapatinib) | log2 fold change (pictilisib) | log2 fold change (crizotinib) | log2 fold change [1] | log2 fold change (duvelisib) | log2 fold change (gandotinib) | log2 fold change (tozasertib) | log2 fold change (doramapimod) | log2 fold change (bafetinib) | log2 fold change [2] |
| --- | --- | --- | --- | --- | --- | --- | --- | --- | --- | --- |
| CNBP (UniProt P62633) | inactive: 0.048 | inactive: -0.029 | – | – | – | – | – | – | inactive: 0.005 | – |
| CHTF8 (UniProt P0CG13) | inactive: 0.073 | inactive: 0.069 | inactive: -0.054 | inactive: 0.059 | inactive: -0.065 | inactive: 0.007 | inactive: -0.107 | inactive: -0.032 | inactive: 0.022 | inactive: -0.001 |
